In PMC2987844:
These are yes or no findings as the source states them, for the method shown. Binding seen in cells or lysates may run through a third protein. A result given as binding can be weak or reduced; the word gives no strength. Sequences can lack the tags named with a protein.

Target: T1, ephrinA5^FLAG (UniProt P52804)
T1 sequence: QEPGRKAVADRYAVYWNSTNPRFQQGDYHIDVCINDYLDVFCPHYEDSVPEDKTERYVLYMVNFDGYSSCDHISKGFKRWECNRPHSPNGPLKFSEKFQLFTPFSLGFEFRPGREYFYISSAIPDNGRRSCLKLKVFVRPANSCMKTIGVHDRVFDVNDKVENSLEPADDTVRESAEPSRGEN
Test: co-IP; CHO cells transfected with ephrinA5^FLAG and TrkA^HA or p75^NTR;HA, low expression levels; lysed one day later; immunoprecipitation with αFLAG antibody; western blot

binding: binds
Substance: TrkA^HA (receptor)
